Results reported in PMC5150261.

T1: FLAG-VRK3 (in SH-SY5Y cells) (not stated (human or mouse cDNA cloned)) (UniProt Q8K3G5)
T1 sequence: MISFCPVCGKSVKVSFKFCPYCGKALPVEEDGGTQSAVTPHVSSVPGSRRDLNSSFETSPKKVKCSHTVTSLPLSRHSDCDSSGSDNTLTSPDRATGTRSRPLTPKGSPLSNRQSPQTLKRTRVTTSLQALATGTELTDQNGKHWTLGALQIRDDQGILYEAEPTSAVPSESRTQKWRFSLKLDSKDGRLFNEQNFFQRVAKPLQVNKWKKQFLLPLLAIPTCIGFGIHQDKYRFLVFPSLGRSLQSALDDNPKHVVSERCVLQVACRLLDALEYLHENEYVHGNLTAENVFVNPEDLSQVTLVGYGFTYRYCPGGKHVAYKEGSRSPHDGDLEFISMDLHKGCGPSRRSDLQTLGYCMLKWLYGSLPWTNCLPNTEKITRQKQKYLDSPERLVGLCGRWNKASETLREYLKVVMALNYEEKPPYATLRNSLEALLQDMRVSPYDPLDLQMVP


How the values were obtained:
[1] = molecular target: T1, FLAG-VRK3 (in SH-SY5Y cells) (not stated (human or mouse cDNA cloned)); assay: co-IP; HA-tagged full length HSP70 or its fragments expressed along with FLAG-VRK3 in SH-SY5Y cells
[2] = molecular target: FLAG-HSP70 (stress-inducible HSP70 form, HSP70A1A) (not stated (human or mouse cDNA cloned)); assay: co-IP; anti-FLAG immunoprecipitation from SH-SY5Y cell lysates expressing FLAG-HSP70; endogenous VHR and VRK3 detected

Row | binding [1] | binding [2] | Molecule
1 | binds | – | HA-tagged HSP70 F2 fragment (amino acids 381-537) (domain or fragment)
2 | binds | – | HA-tagged full length HSP70
3 | – | binds | endogenous VRK3 (vaccinia-related kinase 3) (protein, UniProt Q8IV63 1-474) MISFCPDCGKSIQAAFKFCPYCGNSLPVEEHVGSQTFVNPHVSSFQGSKRGLNSSFETSPKKVKWSSTVTSPRLSLFSDGDSSESEDTLSSSERSKGSGSRPPTPKSSPQKTRKSPQVTRGSPQKTSCSPQKTRQSPQTLKRSRVTTSLEALPTGTVLTDKSGRQWKLKSFQTRDNQGILYEAAPTSTLTCDSGPQKQKFSLKLDAKDGRLFNEQNFFQRAAKPLQVNKWKKLYSTPLLAIPTCMGFGVHQDKYRFLVLPSLGRSLQSALDVSPKHVLSERSVLQVACRLLDALEFLHENEYVHGNVTAENIFVDPEDQSQVTLAGYGFAFRYCPSGKHVAYVEGSRSPHEGDLEFISMDLHKGCGPSRRSDLQSLGYCMLKWLYGFLPWTNCLPNTEDIMKQKQKFVDKPGPFVGPCGHWIRPSETLQKYLKVVMALTYEEKPPYAMLRNNLEALLQDLRVSPYDPIGLPMVP

These are yes or no findings as the source states them, for the method shown. Binding seen in cells or lysates may run through a third protein. Binding can be weak; no strength is given. For part of these data: Sequences can lack the tags named with a protein.
